# Assay results published in the supplement of paper PMC8728848.
# This is one part of the list.
# Columns and labels:
# Experiment in all cases: glycan array binding signal (z-score within array); higher = stronger binding
# Details in all cases: glycan notation: IUPAC condensed, linker removed
# [1] = target: Neu5Ac(a2-6)GlcNAc(b1-4)GlcNAc(b1-4)GlcNAc
# How it was run: (§1)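 The Consortium for Functional Glycomics database supplied 3228 glycan arrays, of which those lacking an available protein sequence were dropped. The binding signal, a within-array Z-score, was averaged across arrays of the same protein sequence and across linkers. Negative scores can be read as non-binding.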
# [2] = target: Neu5Ac(a2-8)Neu5Ac
# How it was run: as §1
# [3] = target: Neu5Ac(a2-8)Neu5Ac(a2-3)Gal(b1-3)GalNAc(b1-4)[Neu5Ac(a2-3)]Gal(b1-4)Glc
# How it was run: as §1
# [4] = target: Neu5Ac(a2-8)Neu5Ac(a2-3)Gal(b1-3)GalNAc(b1-4)[Neu5Ac(a2-8)Neu5Ac(a2-3)]Gal(b1-4)Glc
# How it was run: as §1
# [5] = target: Neu5Ac(a2-8)Neu5Ac(a2-3)Gal(b1-4)Glc
# How it was run: as §1
# [6] = target: Neu5Ac(a2-8)Neu5Ac(a2-3)Gal(b1-4)GlcNAc
# How it was run: as §1
# [7] = target: Neu5Ac(a2-8)Neu5Ac(a2-3)[Gal(b1-3)GalNAc(b1-4)]Gal(b1-4)Glc
# How it was run: as §1
# [8] = target: Neu5Ac(a2-8)Neu5Ac(a2-3)[GalNAc(b1-4)]Gal(b1-4)Glc
# How it was run: as §1
# [9] = target: Neu5Ac(a2-8)Neu5Ac(a2-8)Neu5Ac
# How it was run: as §1
# [10] = target: Neu5Ac(a2-8)Neu5Ac(a2-8)Neu5Ac(a2-3)Gal(b1-4)Glc
# How it was run: as §1
# [11] = target: Neu5Ac(a2-8)Neu5Ac(a2-8)Neu5Ac(a2-3)[Gal(b1-3)GalNAc(b1-4)]Gal(b1-4)Glc
# How it was run: as §1
# [12] = target: Neu5Ac(a2-8)Neu5Ac(a2-8)Neu5Ac(a2-3)[GalNAc(b1-4)]Gal(b1-4)Glc
# How it was run: as §1
# [13] = target: Neu5Ac(a2-8)Neu5Ac(a2-8)Neu5Ac(a2-8)Neu5Ac(a2-3)[GalNAc(b1-4)]Gal(b1-4)Glc
# How it was run: as §1
# [14] = target: Neu5Ac(a2-8)Neu5Gc(a2-3)Gal(b1-4)GlcNAc
# How it was run: as §1
# [15] = target: Neu5Ac(b2-6)Gal(b1-4)GlcNAc
# How it was run: as §1
# [16] = target: Neu5Ac(b2-6)GalNAc
# How it was run: as §1
# [17] = target: Neu5Ac9Ac(a2-3)Gal(b1-3)GlcNAc
# How it was run: as §1
# [18] = target: Neu5Ac9Ac(a2-3)Gal(b1-4)GlcNAc
# How it was run: as §1
# [19] = target: Neu5Ac9Ac(a2-6)Gal(b1-4)GlcNAc
# How it was run: as §1
# [20] = target: Neu5Gc(a2-3)Gal(b1-3)GlcNAc
# How it was run: as §1
# [21] = target: Neu5Gc(a2-3)Gal(b1-3)[Fuc(a1-4)]GlcNAc
# How it was run: as §1
# [22] = target: Neu5Gc(a2-3)Gal(b1-4)Glc
# How it was run: as §1
# [23] = target: Neu5Gc(a2-3)Gal(b1-4)GlcNAc
# How it was run: as §1
# [24] = target: Neu5Gc(a2-3)Gal(b1-4)GlcNAc(b1-3)Gal(b1-4)GlcNAc(b1-2)Man(a1-3)[Neu5Gc(a2-3)Gal(b1-4)GlcNAc(b1-3)Gal(b1-4)GlcNAc(b1-2)Man(a1-6)]Man(b1-4)GlcNAc(b1-4)GlcNAc
# How it was run: as §1
# [25] = target: Neu5Gc(a2-3)Gal(b1-4)[Fuc(a1-3)]GlcNAc
# How it was run: as §1
# [26] = target: Neu5Gc(a2-6)Gal(b1-4)GlcNAc
# How it was run: as §1
# [27] = target: Neu5Gc(a2-6)GalNAc
# How it was run: as §1
# [28] = target: Neu5Gc(a2-8)Neu5Ac(a2-3)Gal(b1-4)GlcNAc
# How it was run: as §1
# [29] = target: Neu5Gc(a2-8)Neu5Gc(a2-3)Gal(b1-4)GlcNAc
# How it was run: as §1
# [30] = target: Neu5Gc(a2-8)Neu5Gc(a2-3)Gal(b1-4)GlcNAc(b1-3)Gal(b1-4)GlcNAc
# How it was run: as §1
# [31] = target: Neu5Gc(a2-8)Neu5Gc(a2-6)Gal(b1-4)GlcNAc
# How it was run: as §1
# [32] = target: Neu5Gc(b2-6)Gal(b1-4)GlcNAc
# How it was run: as §1
binder,measurement,setting,value
Epa21 (Candida glabrata) (protein) MGSSHHHHHHSSGLVPRGSHMASTPNIESHPQGCSPVDTSGIKPGLKMDLYRFPITPPGTGCWSWDWLTVTPDFPRSGYWKWPKIAEVDGVVGPLHLDSGHPTCDPLTSVLPHGFNYLQSITTTNFTMVLHGYFVPKQSGKYTFEFKADDALLLNLGAGNAFSCCDYNNSQYNQGEYLAYAIWSKNNQTATLYLEKGIYYPIRVFYHNRCCGAYMDVVYYFNDSPIPNRDFSGLLFSIPDSDSCDANI,glycan array binding signal (z-score),[1],-0.334
same,glycan array binding signal (z-score),[2],0.145
same,glycan array binding signal (z-score),[3],-0.055
same,glycan array binding signal (z-score),[4],0.074
same,glycan array binding signal (z-score),[5],-0.694
same,glycan array binding signal (z-score),[6],-0.544
same,glycan array binding signal (z-score),[7],-0.557
same,glycan array binding signal (z-score),[8],-0.329
same,glycan array binding signal (z-score),[9],-0.051
same,glycan array binding signal (z-score),[10],0.307
same,glycan array binding signal (z-score),[11],0.878
same,glycan array binding signal (z-score),[12],0.189
same,glycan array binding signal (z-score),[13],-0.229
same,glycan array binding signal (z-score),[14],-0.679
same,glycan array binding signal (z-score),[15],-0.57
same,glycan array binding signal (z-score),[16],-0.743
same,glycan array binding signal (z-score),[17],-0.318
same,glycan array binding signal (z-score),[18],-0.077
same,glycan array binding signal (z-score),[19],-0.473
same,glycan array binding signal (z-score),[20],-0.547
same,glycan array binding signal (z-score),[21],-0.074
same,glycan array binding signal (z-score),[22],0.155
same,glycan array binding signal (z-score),[23],-0.587
same,glycan array binding signal (z-score),[24],-0.199
same,glycan array binding signal (z-score),[25],-0.108
same,glycan array binding signal (z-score),[26],-0.078
same,glycan array binding signal (z-score),[27],-0.313
same,glycan array binding signal (z-score),[28],-1.74
same,glycan array binding signal (z-score),[29],-0.529
same,glycan array binding signal (z-score),[30],-0.8
same,glycan array binding signal (z-score),[31],-0.156
same,glycan array binding signal (z-score),[32],-0.009

# An excerpt of these results, tab-delimited:
binder	measurement	setting	value
Epa21 (Candida glabrata) (protein) MGSSHHHHHHSSGLVPRGSHMASTPNIESHPQGCSPVDTSGIKPGLKMDLYRFPITPPGTGCWSWDWLTVTPDFPRSGYWKWPKIAEVDGVVGPLHLDSGHPTCDPLTSVLPHGFNYLQSITTTNFTMVLHGYFVPKQSGKYTFEFKADDALLLNLGAGNAFSCCDYNNSQYNQGEYLAYAIWSKNNQTATLYLEKGIYYPIRVFYHNRCCGAYMDVVYYFNDSPIPNRDFSGLLFSIPDSDSCDANI	glycan array binding signal (z-score)	[8]	-0.329
same	glycan array binding signal (z-score)	[9]	-0.051
